Source: paper PMC11705650
Results are given in words; binding and its absence hold for the method and conditions named. Binding seen in cells or lysates may run through a third protein. A yes stands for co-enrichment or nearness to the bait. Other partners may have been found. Tags and fused reporters may be left off the sequences shown.

The chains behind the UniProt entries cited, without tags or fusion partners.
UniProt P08670: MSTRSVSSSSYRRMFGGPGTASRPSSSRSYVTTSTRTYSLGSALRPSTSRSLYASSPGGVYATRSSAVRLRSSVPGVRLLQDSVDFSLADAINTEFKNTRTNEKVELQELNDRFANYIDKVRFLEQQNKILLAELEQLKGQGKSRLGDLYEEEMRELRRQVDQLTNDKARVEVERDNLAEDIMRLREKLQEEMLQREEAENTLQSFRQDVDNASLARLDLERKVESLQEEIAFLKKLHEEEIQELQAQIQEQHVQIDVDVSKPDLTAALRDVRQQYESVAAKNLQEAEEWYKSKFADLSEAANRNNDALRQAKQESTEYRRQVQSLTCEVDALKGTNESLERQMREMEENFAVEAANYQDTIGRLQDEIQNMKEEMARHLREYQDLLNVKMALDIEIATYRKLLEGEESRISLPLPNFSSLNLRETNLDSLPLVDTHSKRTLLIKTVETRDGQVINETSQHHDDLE

Biological target: T1, flag-labeled CCND3 (cyclin D3) (UniProt P30281)
T1 sequence: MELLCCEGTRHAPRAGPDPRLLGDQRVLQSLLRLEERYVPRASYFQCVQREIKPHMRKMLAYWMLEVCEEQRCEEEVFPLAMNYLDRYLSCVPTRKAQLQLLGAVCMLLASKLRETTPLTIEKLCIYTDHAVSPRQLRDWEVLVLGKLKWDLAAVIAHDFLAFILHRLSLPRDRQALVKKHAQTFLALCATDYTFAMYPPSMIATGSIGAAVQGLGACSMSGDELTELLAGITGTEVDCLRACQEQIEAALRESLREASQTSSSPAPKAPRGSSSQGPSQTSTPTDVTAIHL
Test: affinity purification with mass spectrometry; lysate of A549-DDP cells expressing flag-labeled CCND3; Co-IP with anti-flag or anti-IgG antibody; bands that differed from the IgG group were cut from the Coomassie-stained gel and sent for LC-MS/MS

Q: How did the binding turn out when vimentin (from UniProt P08670 1-466) was run?
A: binds
